The results in this text go back to PubChem BioAssay AID1347423 (Functional Genomics Laboratory (NCATS/FGL), 2020).

Hit rate of the full screen: of about 52,000 sequences, about 210 (0.4%) were called active.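 Rule for the calls: active = gene whose silencing raises cell survival under the drug, median off-target-corrected z-score across its silencing RNAs 2 or more; inactive = the rest.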 This is one part of the list.

The assay can be described thus: Resistance to Poly (ADP-Ribose) Polymerase inhibitor: Gene Identification via Genome-wide siRNA Screen. The settings on record: mouse BRCA2 R2336H ES cells, olaparib, CellTiter-Glo viability; stronger effect = higher value. An outline of the steps: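 Mouse BRCA2 R2336H ES cells were reverse-transfected with siRNA (20 nM final), treated at 48 h with 500 nM olaparib, and read by CellTiter-Glo after 72 h. Scores: MAD-based z per siRNA, median per gene, seed off-target correction.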
Background: ATP-based viability assays read luminescence as a measure of living cells.
For GCAUCUCAGGGAUUUAGAUTT against Axot, the z-score is inactive: -1.64.

As to GCUCUGUUCUCCAAACUGCTT against Pyy, the z-score is inactive: -0.77.

Turning to GGAAGAAAUAGAUGAGAAUTT against Tnmd, the z-score was inactive: 0.737.

Take GCCGGAUAGACCAAUUGGATT against Nlk: the z-score was inactive: -0.386.

As for GCAUGUUUUCCACAUGUCCTT against V1rb10, the z-score was inactive: 1.45.

Turning to GGUAUCCUCUUUUUUAACCTT against Exosc9, the z-score was inactive: -0.213.

For GGUGGAUAAAGCUUAAAUATT against V1rg10, the z-score is inactive: -0.066.

In the case of “GGAUCUUGAUCUUAGGACATT against D17H6S56E-3”, the z-score was inactive: -1.52.

For GUAUUUCCAGUAUUACUUGTT against AI467606, the z-score was inactive: -0.296.

As for GGACGUACUCCGGAGCUUUTT against Mal2, the z-score was inactive: -0.509.

“GCCAUGAUUAUUUACCGUGTT against 4921513O20Rik”: the z-score was inactive: 0.194.

Take GCAAGACUGAGAGAAUUGGTT against Pi16: the z-score is inactive: 1.15.

With CGAACGUGCCAACUUACUATT against Gpd2, the z-score is inactive: 0.42.

GGUUACCAACCUUCUCAUGTT against Ptbp1: the z-score is inactive: -0.0343.

For “GCAAUAAGUCUCGGGAACATT against 5330427M13Rik”, the z-score was inactive: 0.978.

For the sequence GGCCUUGAAAGCCAUUGGUTT against Kmo, the z-score was inactive: -2.14.

Regarding GGAUUACGAAAAUCAUGGUTT against Polr3e, the z-score was inactive: 0.641.

In the case of “GCGUGAGAAGAGCAUUGAGTT against D030060O14Rik”, the z-score is inactive: -1.91.

Take GGUAAAAGAGGCAAUUACGTT against Olfr1497: the z-score is inactive: 0.221.

On to GGGAUUGAACAGUUAUGUATT against Rpo2tc1, for which the z-score was inactive: -1.23.

In the case of GCUUUCAGGGAAACUUGCCTT against Ky, the z-score was inactive: 1.02.

With “GCCAGUCAUGCCUAUUUUCTT against 9330177P20Rik”, the z-score is inactive: -2.09.

GGAAGUUGUACGGACAGACTT against Nr4a1: the z-score was inactive: -0.534.

As for GGAUUCUGAACCUUACAGATT against Hoxd9, the z-score is inactive: 0.419.

Turning to GGACAAUUAACGAUCCCACTT against Pdxp, the z-score is inactive: 0.23.

Take GACUGCUUCCUUCUGACUGTT against Olfr399: the z-score is inactive: 1.45.

With GGCGGAGGAAAUUUCUGGATT against Creb5, the z-score was inactive: 0.369.

Turning to GGAUCCUAACUAUAUUCUCTT against Pdyn, the z-score is inactive: 0.318.

For CGUGAAGAUCGAACAGGACTT against Wfs1, the z-score is inactive: 0.932.

“GGUUAAGACUCACGACCUGTT against 1700092C17Rik”: the z-score is inactive: 1.39.

Take “GGACCACAUUCCCUUUUUUTT against A130038L21Rik”: the z-score was inactive: -0.792.

GGAGAUUUGGAAAAGGCAATT against Clecsf13: the z-score is inactive: -1.17.

On to GGUCAUUGCUUCCUAUGGCTT against Mgat1, for which the z-score is inactive: -0.62.

For GCUGUAAGCCAAUUAACAUTT against Emp1, the z-score is inactive: 0.6.

In the case of GGAAAAAUUUUGGAUUCAGTT against Hmgb2l1, the z-score was inactive: 0.944.

As to GGCGAUUUUGUGACUUCGUTT against Zadh1, the z-score was inactive: 0.44.

As to CGAGGUCUAUGAGGUAGACTT against Tekt3, the z-score is inactive: 1.37.

In the case of GGAAACAUAAGCAAAAACUTT against Vipr2, the z-score was inactive: -0.0309.

Take GGAUGUGAGGUGCACCAGATT against Trpv6: the z-score is inactive: -0.941.

With GGAAUUGAGUAGCAGCUGATT against Polr2j, the z-score was inactive: -1.9.

In the case of GGCCAACCUGGAGAACUUGTT against Atp6v1c2, the z-score was inactive: 0.198.

On to CGAUGAAAACUACUCGGCATT against Runx1, for which the z-score was inactive: 2.08.

As for “GGUGAAUUAUUGCUUUGAGTT against 2310004I24Rik”, the z-score was inactive: 2.15.

In the case of GGUUUUUACCUACACUUGUTT against Rdh10, the z-score was inactive: -0.892.

Consider GGACCCGAAAAUAAUAUAGTT against Rasgef1b, for which the z-score is inactive: -0.102.

Take GGCCCUCAUCUUUGUGUCCTT against Mgll: the z-score was inactive: 0.776.

With GGAGUUUUACCAGAAGCUGTT against Hs1bp3, the z-score is inactive: -0.65.

Take CGCAGCAGGAAUCAGGAAUTT against AW550801: the z-score is inactive: 0.554.

Regarding GGUAGUGUCCCUGUAUUCCTT against Bok, the z-score was inactive: 1.2.

“GGAUCUUAUGCGAAGCCGCTT against C130098D09”: the z-score is inactive: 0.175.

As for “GGUUGGAGUUAUAGAUUUUTT against D5Bwg0860e”, the z-score is inactive: 1.81.

Consider “GGAACAGAAAACCAUAUAATT against 4933437K13Rik”, for which the z-score was inactive: -1.42.

As to GCUUAAGAAUCGAAAAGAGTT against AA792894, the z-score is inactive: -0.618.

For the sequence GGAGUCAGUACUGUAAAAUTT against Rin2, the z-score was inactive: 0.119.

In the case of GGCACCUAUGAGGUUCUAUTT against Rgpr, the z-score was inactive: -1.39.

In the case of CAUGAUCGAUACCAUCACATT against Adcy1, the z-score is inactive: -0.0474.

Consider “GCAUGAAUCGUGCGAAGAUTT against 9030612M13Rik”, for which the z-score is inactive: -1.3.

Consider GGGAAGACAUGUGAAAAUGTT against Slc17a1, for which the z-score was inactive: -0.276.

On to “GGAAGGGAGACAAAAUAUATT against 9630008K15Rik”, for which the z-score was inactive: -0.385.

As for “GGAAAAGUUGGACUUUUAUTT against 2610034K17Rik”, the z-score is inactive: 0.256.

For the sequence “GGACAAGUGUGUUGAUGGUTT against 6430510M02Rik”, the z-score is inactive: -0.366.

Consider “GGCUAGGUAAUCACUGGGUTT against 9230118O15Rik”, for which the z-score is inactive: 0.56.

“GGGCGGAGAAUGAAGCUUUTT against D930035B09Rik”: the z-score was inactive: 1.55.

With GGGAACAAGGUCAUCUCCUTT against Olfr1444, the z-score was inactive: 2.25.

Consider GGCUUCUGUGGGAAUCACATT against Ednrb, for which the z-score was inactive: -2.13.

With GCCACAAUACUUCCAGCAATT against Tnr, the z-score is inactive: -0.918.

As for GGCUUACCUUAUUGUGAUCTT against Psen2, the z-score is inactive: -0.929.

Regarding GCCUACAAAACAACACUACTT against LOC434439, the z-score is inactive: 0.33.

As to GGAGUUAUCCGUAUUAGUGTT against BC019206, the z-score is inactive: -1.44.

In the case of GGAGAAUGAGUGGUAUCUGTT against Msh2, the z-score is inactive: 0.0286.

For the sequence GCCUCUACUUUACCAAGUUTT against Olfr883, the z-score is inactive: -0.309.

As to “CCAUUUACCAUAAGUUCUUTT against 1810009O10Rik”, the z-score was inactive: 0.0703.

For the sequence CGACGAGGAAUAACCUCUCTT against Myh6, the z-score was inactive: 0.524.

For the sequence GGAAAACAUACCAUGUAUGTT against Zfp322a, the z-score is inactive: 0.0362.

Turning to GGGUUCUCUACCUCAUCCUTT against Uts2r, the z-score was inactive: 2.15.

Regarding “GGAAAUGGGAUUUAAGGAATT against 6030441H18Rik”, the z-score was inactive: -1.87.

With GGCCCUUUAUUCUUAAAAGTT against Gpr88, the z-score was inactive: 0.622.

For CGUGGACUCUAUAAUCAACTT against BC019977, the z-score was inactive: 0.281.

As to GGACACCUACCAAAAGUUATT against Cd9, the z-score is inactive: 1.06.

As for GGCCAAAUAACCUAGUAAUTT against Bxdc1, the z-score was inactive: 0.111.

With “GGAUGCUGGUUCUUUUGGUTT against 4921513O04”, the z-score was inactive: -1.26.

Turning to GGAAGAGCAACUGCUACAATT against Rnase1, the z-score is inactive: 0.294.

Regarding GGCUUCUCCAAAGCUUUAGTT against Dkkl1, the z-score was inactive: 0.341.

As for CGAACGAUUGAAGAUUUCUTT against Nat3, the z-score was inactive: -0.848.

As for CGCAAGGAAAAAAAGUAAGTT against Slc16a13, the z-score is inactive: 0.665.

For the sequence GGAGAAGCAGUUUCUGAAUTT against Bsn, the z-score is inactive: 0.187.

Turning to CGAAGAGUUUAAGUCCAUGTT against Bnip1, the z-score was inactive: -0.148.

As to GCCAGAGCGGAUUAUUGGATT against Cbx1, the z-score is inactive: -1.24.

In the case of GGAUUUCAAAAACCACGUGTT against Snx1, the z-score is inactive: 1.02.

Consider GGAGUAGGAACAAAAAUUGTT against Polb, for which the z-score was inactive: -2.43.

As for GGACUGUUUUGUCUUGAAGTT against LOC331392, the z-score is inactive: -0.0809.

Consider CCAGUACGAACUCUUCCGUTT against Prkcbp1, for which the z-score was inactive: 1.18.

With GGCUUUGAGUAUCAAAAUATT against Pfpl, the z-score is inactive: 0.44.

For CCAAUACUACAUAAUGUCUTT against Abcc12, the z-score is inactive: 0.329.

For GCCCAUUGUUACCUUGUACTT against AV071179, the z-score is inactive: 0.643.

On to GGACCCUCCAGGUUACAUUTT against Ptpn18, for which the z-score is inactive: -1.02.

As for GGUCCUCAAAUGAAAAAGATT against Wbscr24, the z-score is inactive: -0.911.

As for CCCGAACCUUAGUAAAUGUTT against Psmd8, the z-score was inactive: -2.87.

In the case of GCAGACUUUGUUUGACAACTT against Hip1, the z-score was inactive: 0.237.

For the sequence GCAGCGUAAACAUUGUAACTT against Pkib, the z-score was inactive: 0.423.

On to GCGGACACAUCGAGUUUUGTT against Epor, for which the z-score is inactive: -0.473.

For GGAGGGUACUGUUAUUUUUTT against Defb9, the z-score was inactive: 1.37.

Consider GGUAUCAGUAGCUGAUGUGTT against Pde8a, for which the z-score is inactive: -1.17.

Turning to GAGGCUGUCUGCUUCAUCCTT against Mrps12, the z-score was inactive: -0.000859.

For CCAACUGGUAAUCUUCACATT against Olfr3, the z-score is inactive: 0.849.
